{"source": "PubChem BioAssay AID1259308 (NCATS, 2017)", "screen": "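Candidate targets for better recombinant protein yield in mammalian cells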 (primary screen)", "cells": "human HEK293 embryonic kidney cells stably expressing firefly luciferase (HEK-CMV-Luc2-Hygro)", "reagents": "single siRNA against human genes, 0.8 pmol siRNA per well", "timing": "72 h", "read-out": "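Reporter luminescence and viable-cell signal on separate replicate plates, given as percent of non-targeting control and median/MAD z-scores, plus per-cell luciferase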", "direction": "total luciferase, z-score and total luciferase, % of control: higher = more reporter protein produced", "active means": "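An siRNA counts as active if its total luciferase robust z-score exceeds 3; genes with two or more such siRNAs out of three were retested with fresh siRNAs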", "meaning of the calls": "active = raised luciferase; inactive = no rise", "note": "Here is a random part of about 59,000 reagents tested. About 1,510 of them (2.6%) count as active. 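Calls use total luciferase alone and ignore viability, so some active siRNAs may act by altering cell number.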 The numbers tell different reagents against one gene apart. Not all columns of the deposit are shown."}
{"gene symbol": "ILK", "reagent no.": 1, "total luciferase, z-score": 0.294, "total luciferase, % of control": 87.7, "call": "inactive"}
{"gene symbol": "ILK", "reagent no.": 2, "total luciferase, z-score": 0.948, "total luciferase, % of control": 101, "call": "inactive"}
{"gene symbol": "ILK", "reagent no.": 3, "total luciferase, z-score": -1.4, "total luciferase, % of control": 53.9, "call": "inactive"}
{"gene symbol": "MED18", "reagent no.": 1, "total luciferase, z-score": -0.988, "total luciferase, % of control": 62.2, "call": "inactive"}
{"gene symbol": "MED18", "reagent no.": 2, "total luciferase, z-score": -1.31, "total luciferase, % of control": 55.8, "call": "inactive"}
{"gene symbol": "MED18", "reagent no.": 3, "total luciferase, z-score": 0.232, "total luciferase, % of control": 86.5, "call": "inactive"}
{"gene symbol": "ZNF34", "reagent no.": 1, "total luciferase, z-score": 1.82, "total luciferase, % of control": 118, "call": "inactive"}
{"gene symbol": "ZNF34", "reagent no.": 2, "total luciferase, z-score": 0.092, "total luciferase, % of control": 83.7, "call": "inactive"}
{"gene symbol": "ZNF34", "reagent no.": 3, "total luciferase, z-score": 2.51, "total luciferase, % of control": 132, "call": "inactive"}
{"gene symbol": "WDR47", "reagent no.": 1, "total luciferase, z-score": -0.686, "total luciferase, % of control": 68.3, "call": "inactive"}
{"gene symbol": "WDR47", "reagent no.": 2, "total luciferase, z-score": 1.28, "total luciferase, % of control": 107, "call": "inactive"}
{"gene symbol": "WDR47", "reagent no.": 3, "total luciferase, z-score": 0.139, "total luciferase, % of control": 84.6, "call": "inactive"}
{"gene symbol": "BTG3", "reagent no.": 1, "total luciferase, z-score": 0.344, "total luciferase, % of control": 88.7, "call": "inactive"}
{"gene symbol": "BTG3", "reagent no.": 2, "total luciferase, z-score": 0.245, "total luciferase, % of control": 86.8, "call": "inactive"}
{"gene symbol": "BTG3", "reagent no.": 3, "total luciferase, z-score": -1.12, "total luciferase, % of control": 59.6, "call": "inactive"}
{"gene symbol": "CREG1", "reagent no.": 1, "total luciferase, z-score": 2.26, "total luciferase, % of control": 127, "call": "inactive"}
{"gene symbol": "CREG1", "reagent no.": 2, "total luciferase, z-score": 2.42, "total luciferase, % of control": 130, "call": "inactive"}
{"gene symbol": "CREG1", "reagent no.": 3, "total luciferase, z-score": 0.0328, "total luciferase, % of control": 82.5, "call": "inactive"}
{"gene symbol": "LRGUK", "reagent no.": 1, "total luciferase, z-score": -1.35, "total luciferase, % of control": 55, "call": "inactive"}
{"gene symbol": "LRGUK", "reagent no.": 2, "total luciferase, z-score": 1.03, "total luciferase, % of control": 102, "call": "inactive"}
{"gene symbol": "LRGUK", "reagent no.": 3, "total luciferase, z-score": 1.5, "total luciferase, % of control": 112, "call": "inactive"}

Entries listed so far whose gene name begins with Z or z (3):
{"gene symbol": "ZNF34", "reagent no.": 1, "total luciferase, z-score": 1.82, "total luciferase, % of control": 118, "call": "inactive"}
{"gene symbol": "ZNF34", "reagent no.": 2, "total luciferase, z-score": 0.092, "total luciferase, % of control": 83.7, "call": "inactive"}
{"gene symbol": "ZNF34", "reagent no.": 3, "total luciferase, z-score": 2.51, "total luciferase, % of control": 132, "call": "inactive"}
